The chains are these.
B1: Hu195H8D10-5 (antibody, V domains shown)
VH: EVQLVESGGGLVQPGGSLRLSCAASGFNFNTYVMNWVRQAPGKGLEWVARIRTKSNNYATYYADSVKDRFTISRDDSKNSLYLQMNSLKTEDTAVYYCVSGTITRLGGGLDYWGQGTLVTVSS
VL: DIVMTQSPLSLPVTPGEPASISCRSSKRLLHSNGNTYLYWYLQKPGQSPQLLIYRMSNLASGVPDRFSGSGSGTDFTLKISRVEAEDVGVYYCMQHLEYPFTFGGGTKLEIK
notes: humanized
B2: Hu195H8D10-7 (antibody, V domains shown)
VH: B1 VH
VL: B1 VL with D75A
notes: humanized
B3: Hu200C9B9-6 (antibody, V domains shown)
VH: B1 VH with N28S, Y61F, A63V, G108A
VL: B1 VL with R28S, Y41F
notes: humanized
B4: Hu195H8D10-14 (antibody, V domains shown)
VH: B1 VH with K78E, N79S, V95M
VL: B1 VL with Y41F
notes: humanized
B5: Hu200C9B9-8 (antibody, V domains shown)
VH: B1 VH with N28S, Y61F, A63V, G108A
VL: B1 VL with R28S, Y41F, D75A
notes: humanized
B6: Hu200C9B9-3 (antibody, V domains shown)
VH: B1 VH with N28S, A49G, Y61F, A63V, V99A, S100R, G108A
VL: B1 VL with R28S, D75A
notes: humanized
B7: Hu200C9B9-11 (antibody, V domains shown)
VH: B1 VH with N28S, E46N, Y61F, A63V, G108A
VL: B1 VL with R28S, D75A
notes: humanized
B8: Hu195H8D10-13 (antibody, V domains shown)
VH: B1 VH with K78E, N79S, V95M
VL: B1 VL
notes: humanized
B9: Hu195H8D10-12 (antibody, V domains shown)
VH: B1 VH with N79S
VL: B1 VL with Y41F, D75A
notes: humanized
B10: Hu195H8D10-11 (antibody, V domains shown)
VH: B1 VH with N79S
VL: B1 VL with D75A
notes: humanized
B11: Hu195H8D10-3 (antibody, V domains shown)
VH: B1 VH with A49G, V99A, S100R
VL: B1 VL with D75A
notes: humanized
B12: Hu200C9B9-14 (antibody, V domains shown)
VH: B1 VH with N28S, E46N, Y61F, A63V, K78E, G108A
VL: B1 VL with R28S, Y41F
notes: humanized
B13: Hu200C9B9-7 (antibody, V domains shown)
VH: B1 VH with N28S, Y61F, A63V, G108A
VL: B1 VL with R28S, D75A
notes: humanized
B14: Hu200C9B9-9 (antibody, V domains shown)
VH: B1 VH with N28S, E46N, Y61F, A63V, G108A
VL: B1 VL with R28S
notes: humanized
B15: Hu200C9B9-12 (antibody, V domains shown)
VH: B1 VH with N28S, E46N, Y61F, A63V, G108A
VL: B1 VL with R28S, Y41F, D75A
notes: humanized
B16: Hu200C9B9-16 (antibody, V domains shown)
VH: B1 VH with N28S, E46N, Y61F, A63V, K78E, G108A
VL: B1 VL with R28S, Y41F, D75A
notes: humanized
B17: Hu195H8D10-1 (antibody, V domains shown)
VH: B1 VH with A49G, V99A, S100R
VL: B1 VL
notes: humanized
B18: Hu195H8D10-6 (antibody, V domains shown)
VH: B1 VH
VL: B1 VL with Y41F
notes: humanized
B19: Hu195H8D10-16 (antibody, V domains shown)
VH: B1 VH with K78E, N79S, V95M
VL: B1 VL with Y41F, D75A
notes: humanized
B20: Hu200C9B9-1 (antibody, V domains shown)
VH: B1 VH with N28S, A49G, Y61F, A63V, V99A, S100R, G108A
VL: B1 VL with R28S
notes: humanized
B21: Hu195H8D10-15 (antibody, V domains shown)
VH: B1 VH with K78E, N79S, V95M
VL: B1 VL with D75A
notes: humanized
B22: Hu195H8D10-8 (antibody, V domains shown)
VH: B1 VH
VL: B1 VL with Y41F, D75A
notes: humanized
B23: Hu200C9B9-10 (antibody, V domains shown)
VH: B1 VH with N28S, E46N, Y61F, A63V, G108A
VL: B1 VL with R28S, Y41F
notes: humanized
B24: Hu200C9B9-5 (antibody, V domains shown)
VH: B1 VH with N28S, Y61F, A63V, G108A
VL: B1 VL with R28S
notes: humanized
B25: Hu200C9B9-13 (antibody, V domains shown)
VH: B1 VH with N28S, E46N, Y61F, A63V, K78E, G108A
VL: B1 VL with R28S
notes: humanized
B26: Hu195H8D10-9 (antibody, V domains shown)
VH: B1 VH with N79S
VL: B1 VL
notes: humanized
B27: Hu195H8D10-10 (antibody, V domains shown)
VH: B1 VH with N79S
VL: B1 VL with Y41F
notes: humanized
B28: Hu200C9B9-15 (antibody, V domains shown)
VH: B1 VH with N28S, E46N, Y61F, A63V, K78E, G108A
VL: B1 VL with R28S, D75A
notes: humanized
B29: 86D4E12A5 (antibody, V domains shown)
VH: DLQLKESGPGLVKPSQSLSLTCSVTGYSITSGYYWNWIRQLPGNKLEWMGYISFDGSNNYNPSLKTRISITRDTSKNQFFLKLNSVTSEDTATYFCARLRGLLLGHFDVWGTGTTVTVSS
VL: DVQMTQSSSYLSVPLGGRVTITCKASDHINNRLAWYQQKPGNAPRLLISGATKLETGIPSRFRGSGSGKDYTLSIFSLQTEDVATYYCQQYWSTSYTFGGGTKLELR
notes: tested as chimeric mAb
B30: 99D1-1E11 (antibody, V domains shown)
VH: B29 VH with L41F, F54Y, F95Y, A97V, L99E
VL: B29 VL with V2I, P14A
notes: tested as chimeric mAb
B31: 187B5F10 (antibody, V domains shown)
VH: B1 VH with E6G, G15K, R19K, K78E, N79S, S80K, S87N, V95M, L110M, L118S
VL: B1 VL with S7A, P8A, L9P, L11V, P18S, A19V, Y41F, K44R, D75A, K79R
notes: tested as chimeric mAb
B32: 84D1-2H3 (antibody, V domains shown)
VH: EVQLQQSGPVLVKPGASVKMSCKASGYTFTDYYVNWVKKSHGKSPEWIGIIKPYNGGTSYNQKFKGKATLTVDKSSSTVYMELNSLTSEDSAVYHCARFAYSRNPYAMDYWGQGTSVTVSS
VL: DVLLTQTPLSLPVSLGDQASISCRSSQSIVHSTGNTYLEWYLQKPGQSPKVLIYKVSTRFSGVPDRFSGSGSGTDFTLKISRVEAEDLGVYYCFQGSHVPPTFGGGTKLEIK
notes: tested as chimeric mAb of the mouse hybridoma clone
B33: 96G3-1F10 (antibody, V domains shown)
VH: DLQLKESGPGLVKPSQSLSLTCSVTGYSITSGYYWNWIRQFPGNKLEWMGFISYDGNNNYNPSLKNRISITRDTSKNQFFLNVKSVTTEDTATYYCSRATGLRKAWFAYWGQGTLVTVSA
VL: DIQMTQSSSYLSVSLGGRVTITCKASDHINNWLAWYQQKPGNAPRLLISDTTSLGTGVPSRFRGSGSGKDYTLSITSLQTEDVATYFCQQYWSYPYTFGGGTKLEIR
notes: tested as chimeric mAb

Protein sequences, listed by entry. Tags and fused reporters are not part of them. Lines headed by an entry give the natural chain unless they say otherwise; changes in a name come on top. Chains listed by the source or under a name are the forms on record and can include a tag or linker.
cyno CCR8 (G7NYJ2, form named): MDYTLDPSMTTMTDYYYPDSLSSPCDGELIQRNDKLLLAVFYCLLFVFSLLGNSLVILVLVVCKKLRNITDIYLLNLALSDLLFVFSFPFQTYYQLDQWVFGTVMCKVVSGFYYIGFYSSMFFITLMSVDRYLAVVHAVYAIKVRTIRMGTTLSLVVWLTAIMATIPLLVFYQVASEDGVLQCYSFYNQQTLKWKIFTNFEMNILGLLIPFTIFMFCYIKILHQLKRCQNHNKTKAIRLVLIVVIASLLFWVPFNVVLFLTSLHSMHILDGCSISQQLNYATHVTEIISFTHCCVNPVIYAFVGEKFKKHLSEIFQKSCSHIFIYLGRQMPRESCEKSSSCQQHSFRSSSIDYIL

Positions count from the first letter of the chain named. These are yes or no findings as the source states them, for the method shown. Some entries that bind do so weakly or less than the wild type.

One test deals with T1, cyno CCR8 (cynomolgus, UniProt G7NYJ2 1-355).
T1 construct: whole, on cells; also called cynomolgus CCR8 protein
The test is described as follows: FACS, CHO-K1 cyno CCR8 cells. A general note: Flow cytometry measures light scatter and fluorescence of single cells or particles in a stream.
As to B1, the binding result is reported as “binds”. Same read-out and setting: with B2 the entry was “binds”; with B3, “binds”; with B4, “binds”.

As to B5, the binding entry is “binds”. In the case of B6, the binding result was “binds”. With B7, the binding result was “binds”. On to B8, for which the binding entry is “binds”. Still for that read-out and setting: with B9 the entry was “binds”. As for B10, the binding result was “binds”.

Regarding B11, the binding entry is “binds”. With B12, the binding entry was “binds”. The same measure, in the same setting: in the case of B13 it was “binds”; in that of B14, “binds”. With B15, the binding result is recorded as “binds”. Still for that read-out and setting: with B16 the entry was “binds”; with B17, “binds”; with B18, “binds”. With B19, the binding result is “binds”.

For B20, the binding result is “binds”.

For the molecule B21, the binding result is “binds”. On to B22, for which the binding entry is “binds”. As to B23, the binding entry was “binds”. B24: the binding result was “binds”. On the same count and under the same terms, in the case of B25 it was “binds”; in that of B26, “binds”; in that of B27, “binds”. Consider B28, for which the binding result is listed as “binds”.

The target in the next test is T1, cyno CCR8. The test is described as follows: FACS, CHO-K1 cyno CCR8 cells, chimeric mAb.
Turning to B29, the binding result was “binds”. With B30, the binding result is recorded as “binds”. On the same count and under the same terms, with B31 the entry was “binds”.

As to B32, the binding result was “binds”. Same read-out and setting: in the case of B33 it was “binds”.

A further test deals with T1, cyno CCR8. The test is described as follows: FACS (MFI-PE) on CHO-K1 cyno CCR8 cells, bars at five doses [cont'd) C].
In the case of B1, the binding entry was “binds”.

On to B2, for which the binding result is listed as “binds”. The same measure, in the same setting: with B4 the entry was “binds”. Still for that read-out and setting: with B8 the entry was “binds”. On the same count and under the same terms, in the case of B9 it was “binds”; in that of B10, “binds”; in that of B11, “binds”. On to B17, for which the binding entry is “binds”.

As for B18, the binding entry is “binds”. On the same count and under the same terms, with B19 the entry was “binds”; with B21, “binds”; with B22, “binds”.

Turning to B26, the binding entry was “binds”. Same read-out and setting: with B27 the entry was “binds”.

In a further test the target is T1, cyno CCR8. Description: FACS (MFI-PE) on CHO-K1 cyno CCR8 cells, bars at five doses [cont'd) D].
With B3, the binding entry is on record as “binds”. In the case of B5, the binding entry is recorded as “binds”. The same measure, in the same setting: with B6 the entry was “binds”; with B7, “binds”; with B12, “binds”. On the same count and under the same terms, with B13 the entry was “binds”; with B14, “binds”. The same measure, in the same setting: in the case of B15 it was “binds”; in that of B16, “binds”; in that of B20, “binds”.

For B23, the binding entry is reported as “binds”. Turning to B24, the binding entry was “binds”. Take B25: the binding entry is given as “binds”. Regarding B28, the binding result is “binds”.
